Laboratory results taken from article PMC4743000.
Results are given in words; binding and its absence hold for the method and conditions named. Binding seen in cells or lysates may run through a third protein. Some results given as binding are weak or reduced against the parent protein; the word gives no strength.

The chains behind the UniProt entries cited, without tags or fusion partners.
UniProt Q9UNN5: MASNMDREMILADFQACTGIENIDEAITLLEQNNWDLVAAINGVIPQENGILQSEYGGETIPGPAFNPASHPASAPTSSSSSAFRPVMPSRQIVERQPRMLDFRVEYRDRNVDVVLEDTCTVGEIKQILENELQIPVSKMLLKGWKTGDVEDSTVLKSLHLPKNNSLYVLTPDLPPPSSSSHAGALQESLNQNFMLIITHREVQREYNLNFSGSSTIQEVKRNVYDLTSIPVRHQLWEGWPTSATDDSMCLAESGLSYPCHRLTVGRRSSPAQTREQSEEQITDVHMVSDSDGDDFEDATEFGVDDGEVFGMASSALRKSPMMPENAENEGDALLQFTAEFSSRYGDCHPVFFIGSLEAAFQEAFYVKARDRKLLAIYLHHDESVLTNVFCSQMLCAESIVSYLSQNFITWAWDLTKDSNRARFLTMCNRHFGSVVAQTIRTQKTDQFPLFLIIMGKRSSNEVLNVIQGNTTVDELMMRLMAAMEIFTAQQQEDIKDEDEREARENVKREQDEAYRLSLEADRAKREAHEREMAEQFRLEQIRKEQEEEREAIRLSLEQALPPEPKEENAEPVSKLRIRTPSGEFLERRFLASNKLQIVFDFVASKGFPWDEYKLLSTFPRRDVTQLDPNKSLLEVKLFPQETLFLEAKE

Target: HA-tagged FAF1 (FAS-associated factor 1) (human) (UniProt Q9UNN5)
Assay: co-IP; anti-HA agarose beads with nuclear lysates of HEK293 cells expressing HA-FAF1 and the doxycycline-induced p97 substrate trap variant; 3 h at 4 °C; IP buffer 50 mM Tris pH 8.0, 150 mM NaCl, 0.05% NP-40; western blot

binding: binds
B1: CDT-1 (human) (protein, UniProt Q9H211 1-546)
chain: MEQRRVTDFFARRRPGPPRIAPPKLACRTPSPARPALRAPASATSGSRKRARPPAAPGRDQARPPARRRLRLSVDEVSSPSTPEAPDIPACPSPGQKIKKSTPAAGQPPHLTSAQDQDTISELASCLQRARELGARVRALKASAQDAGESCTPEAEGRPEEPCGEKAPAYQRFHALAQPGLPGLVLPYKYQVLAEMFRSMDTIVGMLHNRSETPTFAKVQRGVQDMMRRRFEECNVGQIKTVYPASYRFRQERSVPTFKDGTRRSDYQLTIEPLLEQEADGAAPQLTASRLLQRRQIFSQKLVEHVKEHHKAFLASLSPAMVVPEDQLTRWHPRFNVDEVPDIEPAALPQPPATEKLTTAQEVLARARNLISPRMEKALSQLALRSAAPSSPGSPRPALPATPPATPPAASPSALKGVSQDLLERIRAKEAQKQLAQMTRCPEQEQRLQRLERLPELARVLRSVFVSERKPALSMEVACARMVGSCCTIMSPGEMEKHLLLLSELLPDWLSLHRIRTDTYVKLDKAADLAHITARLAHQTRAEEGL
